Data taken from US20120064056A1, “DICHLORACETATE IN COMBINATION WITH CLINICALLY HIGH LEVELS OF CARDIOPROTECTIVE OR HEMODYNAMIC DRUGS” (THE GOVERNORS OF THE UNIVERSITY OF ALBERTA TEC Edmonton, priority 2002, published 2012).
Entries after “also recorded” stand apart in the source; their conditions may differ. At least one compound was matched to its structure with a doubt left.

Legend:
[1] = tested on: isolated rat hearts subjected to global ischemia; assay: Isolated working rat heart, global ischemia and reperfusion: glycolysis and glucose oxidation; details: digoxin 3 nM, metoprolol 1 μM
Description: Hearts were trimmed of excess tissue, and the pulmonary artery and the opening to the left atrium were then cannulated. After 15 min of Langendorff perfusion, hearts were switched to the working mode by clamping the aortic inflow line from the Langendorff reservoir and opening the left atrial inflow line. The perfusate was delivered from an oxygenator into the left atrium at a constant preload pressure of 11 mm Hg. […] The afterload was set at a hydrostatic pressure of 80 mm Hg. […] Palmitate was bound to the albumin as described previously ([…]., et al. J Biol. Chem. 267:3825-3831 (1992)). […] For the aerobic model hearts, all tested compounds were introduced into the heart 5 minutes into the working mode following Langendorff Perfusion. […] All tested compounds were introduced into the perfusate five minutes prior to reperfusion. […] Am J Physiol. 270:[…]. Am J Cardiol. 80:3A-10A (1997)). […] In the global ischemia model, the total myocardial ^3H2O and ^14CO2 production were determined at 20 minute intervals for the 60 minute reperfusion period. […] L., et al. Biochemistr. 1923:6503-6062 (1984)).

[2] = tested on: isolated rat hearts subjected to low flow demand ischemia; assay: Isolated working rat heart, low flow demand ischemia: cardiac function and efficiency
Description: (§1) Hearts were trimmed of excess tissue, and the pulmonary artery and the opening to the left atrium were then cannulated. After 15 min of Langendorff perfusion, hearts were switched to the working mode by clamping the aortic inflow line from the Langendorff reservoir and opening the left atrial inflow line. The perfusate was delivered from an oxygenator into the left atrium at a constant preload pressure of 11 mm Hg. […] The afterload was set at a hydrostatic pressure of 80 mm Hg. […] Palmitate was bound to the albumin as described previously ([…]., et al. J Biol. Chem. 267:3825-3831 (1992)). […] For the aerobic model hearts, all tested compounds were introduced into the heart 5 minutes into the working mode following Langendorff Perfusion. Spontaneously beating hearts were used in all perfusions. Heart rate and aortic pressure were measured with a Biopac Systems Inc. blood pressure transducer connected to the aortic outflow line. Cardiac output and aortic flow were measured with Transonic […] ultrasonic flow probes in the preload and afterload lines, respectively. Coronary flow was calculated as the difference between cardiac output and aortic flow. […] Cardiac work was calculated as the product of systolic pressure and cardiac output. Cardiac efficiency was defined as a ratio of cardiac work to MVO2. […] All tested compounds were introduced into the perfusate five minutes into initiation of aerobic perfusion.

[3] = tested on: isolated rat hearts subjected to global ischemia; assay: Isolated working rat heart, global no flow ischemia and reperfusion: cardiac function and efficiency
Description: as §1, with “prior to reperfusion.” for “into initiation of aerobic perfusion.”

SMILES: O=C(O)C(Cl)Cl [DCA, dichloroacetate]
- glycolytic rates as compared to control, in words ([1]; FIG. 10, FIG. 16, DCA 2 mM): neither DCA, digoxin, nor digoxin with DCA altered glycolytic rates; also recorded: neither DCA, metoprolol or metoprolol with DCA altered glycolytic rates
- glucose oxidation rates, in words ([1]; reperfusion period, FIG. 9, FIG. 15, DCA 2 mM): significantly higher; also recorded: significantly increased
- cardiac work, in words ([2]; low flow demand ischemia, FIG. 24, FIG. 30): no significant changes
- oxygen consumption, in words ([2]; low flow demand ischemia, FIG. 25, FIG. 31): no significant changes
- peak systolic pressure, effect in words ([2]; low flow demand ischemia, Table 1): no significant increase
- heart rate, effect in words ([2]; low flow demand ischemia, Table 1, compared to control): no significant increase
- coronary flow (coronary outflow), effect in words ([2]; low flow demand ischemia, Table 2): no significant increase
- cardiac function, in words ([2]; low-flow ischemic period, FIG. 23, FIG. 29): Neither diltiazem, DCA, nor DCA with diltiazem significantly affected; also recorded: no significant changes
- functional parameters (cardiac function, cardiac efficiency) during the reperfusion period compared to control (Table 1, Table 2), in words [3]: significantly improve
- recovery of cardiac function of previously ischemic hearts compared to control, in words ([3]; reperfusion period, FIG. 11, FIG. 17): significantly improve the recovery
- recovery of cardiac work of previously ischemic hearts compared to control, in words ([3]; reperfusion period, FIG. 12, FIG. 18): significantly improve the recovery
- recovery of oxygen consumption of previously ischemic hearts, in words ([3]; reperfusion period, FIG. 13, FIG. 19): significantly improve the recovery; also recorded: There does not appear to be significant differences
- recovery of cardiac efficiency of previously ischemic hearts compared to control, in words ([3]; reperfusion period, FIG. 14, FIG. 20): significantly improve the recovery
